For at least one entry, the source does not settle the construct or the ends of the probe. Where cells or extracts were used, other partners may take part.
Molecular target: PD-L1 (UniProt Q9NZQ7)
Test: competition with a labelled probe
Conditions: EJ cells preincubated with 2.5 uM unlabelled aptamer, prevents PD-L1-GEMs binding (flow cytometry); Cell binding buffer with 0.1 mg/mL tRNA, 1 mg/mL BSA, 10% FBS; on ice 1 h; PBS washes; pH not stated; protein on the cell surface; label: none (unlabelled competitor); single-stranded DNA

By UniProt entry, the sequences of proteins in these tests, tags left out. Residues count along the entry.
UniProt Q9NZQ7, 19-290: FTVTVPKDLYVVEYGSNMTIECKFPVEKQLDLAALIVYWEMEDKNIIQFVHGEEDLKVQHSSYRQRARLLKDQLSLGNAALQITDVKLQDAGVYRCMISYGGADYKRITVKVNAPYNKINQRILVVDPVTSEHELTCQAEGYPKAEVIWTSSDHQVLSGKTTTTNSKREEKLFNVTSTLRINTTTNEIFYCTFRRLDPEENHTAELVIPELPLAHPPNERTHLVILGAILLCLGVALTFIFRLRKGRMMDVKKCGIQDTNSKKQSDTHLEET

## TTTACAGGTTCTGGGGGGTGGGTGGGGAACCTGTTTT [PD-L1 aptamer]
  binding result: binds

— PMC11936014
